Results deposited as PubChem BioAssay AID493246 (Drosophila RNAi Screening Center, 2011)

Test: 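Genes fly cells need to grow and stay alive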 (primary screen)
Cell system: Drosophila Kc and S2R+ cells
Reagents: long dsRNA against Drosophila genes
Measurement: 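Cell number per well after knock-down, printed as raw plate values; calls were based on per-plate z-scores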
Direction: Kc cell number and S2R+ cell number: higher = more cells remaining
Hit rule: 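Active when the per-plate z-score of cell number is 3 or more in the direction of fewer cells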
The screen tested about 21,000 reagents; below is a random part of those that have a named target and a result. Of all reagents, 429 (2%) were called active. 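Values are raw and not normalised between plates; calls rest on per-plate z-scores that were not deposited.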 Names joined by + are all predicted targets of the reagent. Not stated in the record: the amount of reagent, the time to read-out.

| target gene | DRSC id | Kc cell number, rep 1 | Kc cell number, rep 2 | S2R+ cell number, rep 1 | S2R+ cell number, rep 2 | Call |
| --- | --- | --- | --- | --- | --- | --- |
| PIG-S (Phosphatidylinositol glycan anchor biosynthesis class S) | DRSC14643 | 1.54e6 | 1.64e6 | 1.19e6 | 1.37e6 | inactive |
| PIG-S (Phosphatidylinositol glycan anchor biosynthesis class S) | DRSC15388 | 1.46e6 | 1.53e6 | 9.48e5 | 1.03e6 | inactive |
| PIG-S (Phosphatidylinositol glycan anchor biosynthesis class S) | DRSC15952 | 1.64e6 | 1.71e6 | 1.19e6 | 1.26e6 | inactive |
| Dph2 (Diphthamide biosynthesis 2) | DRSC16222 | 1.49e6 | 1.54e6 | 1.20e6 | 1.32e6 | inactive |
| ppk7 (pickpocket 7) | DRSC03236 | 1.67e6 | 1.63e6 | 1.08e6 | 1.31e6 | inactive |
| tsh (teashirt) | DRSC03740 | 1.54e6 | 1.65e6 | 1.18e6 | 2.93e5 | inactive |
| Liprin-alpha | DRSC02132 | 1.19e6 | 1.33e6 | 7.41e5 | 6.58e5 | inactive |
| Mys45A (Mystery 45A) | DRSC07067 | 1.13e6 | 1.24e6 | 9.72e5 | 1.08e6 | inactive |
| CG32447 | DRSC11732 | 1.58e6 | 1.64e6 | 1.23e6 | 1.32e6 | inactive |
| CG32447 | DRSC11805 | 1.34e6 | 1.34e6 | 1.38e6 | 1.45e6 | inactive |
| spn-E (spindle E) | DRSC17064 | 1.46e6 | 1.54e6 | 1.23e6 | 1.33e6 | inactive |
| CG13003 | DRSC19522 | 1.56e6 | 1.54e6 | 1.13e6 | 1.22e6 | inactive |
| inv (invected) | DRSC07633 | 1.83e6 | 1.77e6 | 1.15e6 | 1.40e6 | inactive |
| Teh4 (tipE homolog 4) | DRSC08457 | 1.56e6 | 1.45e6 | 1.07e6 | 1.27e6 | inactive |
| Cib2 (Calcium and integrin binding family member 2) | DRSC04535 | 1.52e6 | 1.64e6 | 1.32e6 | 3.95e5 | inactive |
| CadN (Cadherin-N) | DRSC03286 | 1.68e6 | 1.76e6 | 1.24e6 | 1.40e6 | inactive |
| Cox10 (Cytochrome c oxidase assembly factor 10) | DRSC02804 | 1.26e6 | 1.27e6 | 1.05e6 | 1.18e6 | inactive |
| Droj2 (DnaJ-like-2) | DRSC16450 | 1.54e6 | 1.68e6 | 1.28e6 | 1.39e6 | inactive |
| Orcokinin | DRSC04202 | 1.67e6 | 1.70e6 | 1.32e6 | 1.43e6 | inactive |
| Tengl4 (Testis EndoG-Like 4) | DRSC15620 | 1.65e6 | 1.65e6 | 1.37e6 | 1.38e6 | inactive |
| Osi17 (Osiris 17) | DRSC12284 | 1.74e6 | 1.94e6 | 1.34e6 | 1.61e6 | inactive |
| CG10311 | DRSC14228 | 1.22e6 | 1.26e6 | 1.12e6 | 1.29e6 | inactive |
| RpS6 (Ribosomal protein S6) | DRSC18712 | 3.79e5 | – | 6.81e5 | – | inactive |
| CG30467 | DRSC07097 | 1.75e6 | 1.70e6 | 1.27e6 | 1.39e6 | inactive |
| Ctl1 (Choline transporter-like 1) | DRSC08303 | 1.49e6 | 1.45e6 | 1.15e6 | 1.28e6 | inactive |
| betaTub56D (beta-Tubulin at 56D) | DRSC07583 | 1.68e6 | 1.60e6 | 8.89e5 | 1.05e6 | inactive |
| hbt (headbutt) | DRSC02503 | 1.57e6 | 1.65e6 | 1.22e6 | 1.39e6 | inactive |
| Jon99Ciii (Jonah 99Ciii) | DRSC16859 | 1.37e6 | 1.42e6 | 8.34e5 | 9.21e5 | inactive |
| Psi (P-element somatic inhibitor) | DRSC07519 | 1.78e6 | 1.77e6 | 1.20e6 | 1.29e6 | inactive |
| Cyp309a1 (Cytochrome P450 309a1) | DRSC00747 | 1.64e6 | 1.71e6 | 1.10e6 | 1.23e6 | inactive |
| CG3611 | DRSC04395 | 1.60e6 | 1.68e6 | 1.39e6 | 1.52e6 | inactive |
| CG31204 | DRSC15106 | 1.60e6 | 1.61e6 | 1.02e6 | 1.16e6 | inactive |
| Cul6 (Cullin 6) | DRSC09830 | 1.28e6 | 1.32e6 | 1.33e6 | 1.08e6 | inactive |
| Ldh (Lactate dehydrogenase) | DRSC11198 | 1.36e6 | 1.32e6 | 1.24e6 | 1.26e6 | inactive |
| CG8112 | DRSC16377 | 1.65e6 | 2.02e6 | 1.24e6 | 1.39e6 | inactive |
| CG6005 | DRSC15945 | 1.45e6 | 1.59e6 | 1.14e6 | 1.18e6 | inactive |
| Ada2a (transcriptional Adaptor 2a) | DRSC16206 | 1.42e6 | 1.63e6 | 1.05e6 | 1.10e6 | inactive |
| tsg (twisted gastrulation) | DRSC20380 | 1.55e6 | 1.48e6 | 1.07e6 | 1.12e6 | inactive |
| CG31743 + CG34313 | DRSC02781 | 1.37e6 | 1.47e6 | 1.38e6 | 1.28e6 | inactive |
| CG31743 + CG34313 | DRSC02782 | 1.70e6 | 1.88e6 | 1.19e6 | 1.27e6 | inactive |
| az2 | DRSC07580 | 1.31e6 | 1.39e6 | 1.02e6 | 9.19e5 | inactive |
| Eig71Ek | DRSC11158 | 1.35e6 | 1.37e6 | 1.20e6 | 1.37e6 | inactive |
| CalpA (Calpain-A) | DRSC07352 | 1.52e6 | 1.59e6 | 1.14e6 | 1.26e6 | inactive |
| MstProx + Mst84Da | DRSC12597 | 1.60e6 | 1.76e6 | 1.32e6 | 1.44e6 | inactive |
| Doc1 (Dorsocross1) | DRSC11146 | 1.44e6 | 1.48e6 | 1.29e6 | 1.33e6 | inactive |
| tei (teiresias) | DRSC07616 | 1.86e6 | 1.74e6 | 1.23e6 | 1.43e6 | inactive |
| CCT4 (Chaperonin containing TCP1 subunit 4) | DRSC02865 | 1.55e6 | 1.59e6 | 1.31e6 | 1.45e6 | inactive |
| CG8768 | DRSC07259 | 1.30e6 | 1.48e6 | 1.08e6 | 1.20e6 | inactive |
| CG3088 | DRSC10352 | 1.37e6 | 1.56e6 | 1.25e6 | 1.17e6 | inactive |
| blp (black pearl) | DRSC15757 | 1.60e6 | 1.65e6 | 1.28e6 | 1.41e6 | inactive |
| CG8944 | DRSC20128 | 1.34e6 | 1.38e6 | 9.76e5 | 1.14e6 | inactive |
| CG3609 | DRSC00620 | 1.45e6 | 1.50e6 | 9.89e5 | 1.15e6 | inactive |
| CG15571 | DRSC18059 | 1.48e6 | 1.49e6 | 9.99e5 | 1.11e6 | inactive |
| mey (morpheyus) | DRSC14468 | 5.25e5 | – | 7.66e5 | – | inactive |
| CG10561 | DRSC02068 | 1.30e6 | 1.36e6 | 1.31e6 | 1.31e6 | inactive |
| CG1236 | DRSC12203 | 1.82e6 | 1.86e6 | 1.22e6 | 1.39e6 | inactive |
| Muc91C (Mucin 91C) | DRSC16297 | 1.22e6 | 1.40e6 | 1.06e6 | 1.18e6 | inactive |
| CG17597 | DRSC02630 | 1.41e6 | 1.45e6 | 1.25e6 | 1.26e6 | inactive |
| alpha-Est4 (alpha-Esterase-4) | DRSC12616 | 1.46e6 | 1.57e6 | 1.29e6 | 1.43e6 | inactive |
